{
  "source": "paper PMC12399788",
  "about": "“A Comparison of the Molecular Pharmacological Properties of Current Short, Long, and Ultra‐Long‐Acting β2‐Agonists Used for Asthma and COPD” (Pharmacology Research & Perspectives, 2025)",
  "origin": "cited, not measured here",
  "system": "human lung (mast cells)",
  "settings": "histamine release from human lung (mast cells)",
  "data": [
    {"smiles": "COc1ccc(CC(C)NCC(O)c2ccc(O)c(NC=O)c2)cc1", "note": "(stereo not shown) [Formoterol, formoterol]", "values": [
      {"measurement": "time by which response was lost", "result": "≤ 8", "unit": "h"}
    ]}
  ]
}
